Results are given in words; binding and its absence hold for the method and conditions named. Binding can be weak; no strength is given. For part of these data: Binding seen in cells or lysates may run through a third protein.
Key:
[1] = target: T1, Fip1_(226) (Fip1 residues 1–226), purified from E. coli (yeast) (UniProt P45976); experiment: NMR titration; labelled Fip1_(226) with unlabelled Yth1ZF4, Pap1, or both together; chemical shift perturbations and line broadening (1H,15N HSQC; 13C-detect CON); 278 K, 50 mM HEPES (pH 7.4), 150 mM NaCl; both purified
T1 sequence: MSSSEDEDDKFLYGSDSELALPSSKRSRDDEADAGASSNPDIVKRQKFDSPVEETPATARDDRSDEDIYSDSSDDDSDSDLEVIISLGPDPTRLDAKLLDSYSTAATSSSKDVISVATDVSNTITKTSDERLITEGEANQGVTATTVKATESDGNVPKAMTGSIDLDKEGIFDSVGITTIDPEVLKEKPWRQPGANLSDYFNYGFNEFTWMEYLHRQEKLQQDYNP

Protein sequences, listed by entry. Tags and fused reporters are not part of them. Lines headed by an entry give the natural chain unless they say otherwise; changes in a name come on top.
UniProt Q06102: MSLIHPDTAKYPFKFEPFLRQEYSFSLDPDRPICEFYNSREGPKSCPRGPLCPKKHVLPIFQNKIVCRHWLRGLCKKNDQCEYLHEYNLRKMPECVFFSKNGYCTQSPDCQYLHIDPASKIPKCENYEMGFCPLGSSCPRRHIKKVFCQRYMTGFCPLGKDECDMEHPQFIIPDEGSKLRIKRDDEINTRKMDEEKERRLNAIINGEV

[2] = target: Yth1ZF4 (Yth1 zinc finger 4) (yeast) (UniProt Q06102); experiment: NMR titration; 15N-labelled Yth1 construct with unlabelled Fip1_(226), equimolar, 75 µM; chemical shift perturbations and line broadening; 700 MHz, 298 K, 50 mM HEPES (pH 7.4), 150 mM NaCl; both purified
[3] = target: Yth1_(ΔZF5C) (yeast); experiment: pull-down; StrepII (SII) tag on Pfs2 as bait; polymerase module subunits co-expressed in Sf9 cells; clarified lysate on Streptactin resin, 4°C; eluate analysed by SDS-PAGE

Yth1ZF4 (Yth1 zinc finger 4) (from UniProt Q06102) (domain or fragment)
binding [1]: binds

B1: Fip1_(226) (Fip1 residues 1–226), purified from E. coli (domain or fragment, yeast, UniProt P45976 1-226, looked up)
chain: T1 sequence
notes: Isotopically labelled (15N, 13C, 2H) where it is the observed species in NMR; cloned in pET28a+; also called Fip226; source: E. coli BL21 Star, purified (Ni-NTA, TEV cleavage, Superdex 75); not shown: His tag, N-terminal, cleaved
binding [2]: binds

B2: Fip1 (protein, UniProt P45976 1-327)
chain: MSSSEDEDDKFLYGSDSELALPSSKRSRDDEADAGASSNPDIVKRQKFDSPVEETPATARDDRSDEDIYSDSSDDDSDSDLEVIISLGPDPTRLDAKLLDSYSTAATSSSKDVISVATDVSNTITKTSDERLITEGEANQGVTATTVKATESDGNVPKAMTGSIDLDKEGIFDSVGITTIDPEVLKEKPWRQPGANLSDYFNYGFNEFTWMEYLHRQEKLQQDYNPRRILMGLLSLQQQGKLNSANDTDSNLGNIIDNNNNVNNANMSNLNSNMGNSMSGTPNPPAPPMHPSFPPLPMFGSFPPFPMPGMMPPMNQQPNQNQNQNSK
binding [3]: binds

— article PMC8559680, “Dynamics in Fip1 regulate eukaryotic mRNA 3′ end processing” (Genes & Development, 2021)
